These are yes or no findings as the source states them, for the method shown. Some results given as binding are weak or reduced against the parent protein; the word gives no strength. For part of these data: Tags and fused reporters may be left off the sequences shown.
What was measured:
CD40-Fc [1] = target: T1, CD40-Fc (human, UniProt P25942 21-193); assay: ELISA, 100 nM, immobilized receptor-Fc
T1 construct: extracellular domain; hinge included for covalent assembly; also called CD40 receptor-Fc fusion protein; not shown: human Fc gamma 1 region including the hinge region

Sequences of proteins named here, by UniProt entry; tags and fusion partners are left off. A change or cut given only in a name is not applied to a line headed by its entry.
UniProt P25942: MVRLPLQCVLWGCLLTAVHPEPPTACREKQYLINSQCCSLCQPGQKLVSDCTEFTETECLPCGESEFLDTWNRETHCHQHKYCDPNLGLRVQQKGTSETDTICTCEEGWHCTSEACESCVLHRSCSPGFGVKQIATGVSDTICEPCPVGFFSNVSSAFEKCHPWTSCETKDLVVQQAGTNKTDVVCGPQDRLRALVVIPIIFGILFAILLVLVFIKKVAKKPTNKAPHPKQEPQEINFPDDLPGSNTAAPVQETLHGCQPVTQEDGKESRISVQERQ

CD27-Fc [2] = target: T2, CD27-Fc (human, UniProt P26842 20-191); assay: ELISA, 100 nM, immobilized receptor-Fc
T2 construct: extracellular domain; hinge included for covalent assembly; also called CD27 receptor-Fc fusion protein; not shown: human Fc gamma 1 region including the hinge region
T2 sequence (looked up): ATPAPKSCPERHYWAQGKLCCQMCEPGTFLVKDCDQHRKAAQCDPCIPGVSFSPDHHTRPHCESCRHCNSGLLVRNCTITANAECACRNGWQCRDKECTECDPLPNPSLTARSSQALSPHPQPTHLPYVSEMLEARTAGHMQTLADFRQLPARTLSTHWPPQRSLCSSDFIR

CD40-Fc [3] = target: T1, CD40-Fc; assay: ELISA, coated receptor-Fc
CD27-Fc [4] = target: T2, CD27-Fc; assay: ELISA, coated receptor-Fc
CD40 receptor on cells [5] = target: T3, CD40 receptor on cells (human, UniProt P25942 21-277); assay: flow cytometry, HT1080 transfectants, 100 nM
[6] = target: CD27 receptor on cells (human) (UniProt P26842); assay: flow cytometry, HT1080 transfectants, 100 nM
CD40-Fc [7] = target: T1, CD40-Fc; assay: ELISA titration from 316 nM
CD27-Fc [8] = target: T2, CD27-Fc; assay: ELISA titration from 316 nM
CD40-Fc [9] = target: T1, CD40-Fc; assay: flow cytometry, soluble receptor-Fc (10 nM) on cell-bound scDuokine
CD27-Fc [10] = target: T2, CD27-Fc; assay: as above
CD40 receptor on cells [11] = target: T3, CD40 receptor on cells; assay: flow cytometry, receptor on HT1080 cells, second receptor-Fc for detection
[12] = target: CD27 receptor on cells (human) (UniProt P26842); assay: as above
OX40-Fc [13] = target: T4, OX40-Fc (human, UniProt P43489 29-214); assay: ELISA, 100 nM, immobilized receptor-Fc
T4 construct: extracellular domain; hinge included for covalent assembly; also called OX40 receptor-Fc fusion protein; not shown: human Fc gamma 1 region including the hinge region
T4 sequence (looked up): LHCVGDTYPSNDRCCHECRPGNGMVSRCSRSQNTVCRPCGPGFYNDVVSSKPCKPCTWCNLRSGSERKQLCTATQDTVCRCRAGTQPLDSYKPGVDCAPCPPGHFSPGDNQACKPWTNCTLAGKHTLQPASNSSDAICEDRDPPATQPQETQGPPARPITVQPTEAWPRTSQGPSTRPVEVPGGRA

OX40-Fc [14] = target: T4, OX40-Fc; assay: ELISA, coated receptor-Fc
OX40 receptor on cells [15] = target: T5, OX40 receptor on cells (human, UniProt P43489 29-277); assay: flow cytometry, HT1080 transfectants, 100 nM
T5 sequence (looked up): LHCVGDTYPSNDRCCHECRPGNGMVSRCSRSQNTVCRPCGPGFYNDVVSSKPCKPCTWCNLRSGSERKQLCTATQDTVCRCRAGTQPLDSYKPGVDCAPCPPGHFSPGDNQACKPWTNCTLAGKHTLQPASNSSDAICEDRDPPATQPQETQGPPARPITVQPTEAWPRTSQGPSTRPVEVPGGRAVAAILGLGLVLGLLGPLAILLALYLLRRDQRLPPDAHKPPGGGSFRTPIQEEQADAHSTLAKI

OX40-Fc [16] = target: T4, OX40-Fc; assay: ELISA titration from 316 nM
OX40-Fc [17] = target: T4, OX40-Fc; assay: flow cytometry, soluble receptor-Fc (10 nM) on cell-bound scDuokine
OX40 receptor on cells [18] = target: T5, OX40 receptor on cells; assay: flow cytometry, receptor on HT1080 cells, second receptor-Fc for detection

Measured: binding

B1: scCD27L-scCD40L (ligand)
chain: SLGWDVAELQLNHTGPQQDPRLYWQGGPALGRSFLHGPELDKGQLRIHRDGIYMVHIQVTLAICSSTTASRHHPTTLAVGICSPASRSISLLRLSFHQGCTIASQRLTPLARGDTLCTNLTGTLLPSRNTDETFFGVQWVRPGGGSGGGSLGWDVAELQLNHTGPQQDPRLYWQGGPALGRSFLHGPELDKGQLRIHRDGIYMVHIQVTLAICSSTTASRHHPTTLAVGICSPASRSISLLRLSFHQGCTIASQRLTPLARGDTLCTNLTGTLLPSRNTDETFFGVQWVRPGGGSGGGSLGWDVAELQLNHTGPQQDPRLYWQGGPALGRSFLHGPELDKGQLRIHRDGIYMVHIQVTLAICSSTTASRHHPTTLAVGICSPASRSISLLRLSFHQGCTIASQRLTPLARGDTLCTNLTGTLLPSRNTDETFFGVQWVRPGGGGSGGGTGGGGSGDQNPQIAAHVISEASSKTTSVLQWAEKGYYTMSNNLVTLENGKQLTVKRQGLYYIYAQVTFCSNREASSQAPFIASLCLKSPGRFERILLRAANTHSSAKPCGQQSIHLGGVFELQPGASVFVNVTDPSQVSHGTGFTSFGLLKLGGGSGGGGDQNPQIAAHVISEASSKTTSVLQWAEKGYYTMSNNLVTLENGKQLTVKRQGLYYIYAQVTFCSNREASSQAPFIASLCLKSPGRFERILLRAANTHSSAKPCGQQSIHLGGVFELQPGASVFVNVTDPSQVSHGTGFTSFGLLKLGGGSGGGGDQNPQIAAHVISEASSKTTSVLQWAEKGYYTMSNNLVTLENGKQLTVKRQGLYYIYAQVTFCSNREASSQAPFIASLCLKSPGRFERILLRAANTHSSAKPCGQQSIHLGGVFELQPGASVFVNVTDPSQVSHGTGFTSFGLLKL
notes: scDuokine from HEK293, FLAG-purified; VH leader left out; also called single-chain Duokine scCD27L-scCD40L; not shown: N-terminal FLAG tag
not listed: OX40-Fc [13] | OX40-Fc [14] | OX40 receptor on cells [15] | OX40-Fc [16] | OX40-Fc [17] | OX40 receptor on cells [18]
binds: all other assays above

B2: scCD40L-scOX40L (ligand)
chain: GDQNPQIAAHVISEASSKTTSVLQWAEKGYYTMSNNLVTLENGKQLTVKRQGLYYIYAQVTFCSNREASSQAPFIASLCLKSPGRFERILLRAANTHSSAKPCGQQSIHLGGVFELQPGASVFVNVTDPSQVSHGTGFTSFGLLKLGGGSGGGGDQNPQIAAHVISEASSKTTSVLQWAEKGYYTMSNNLVTLENGKQLTVKRQGLYYIYAQVTFCSNREASSQAPFIASLCLKSPGRFERILLRAANTHSSAKPCGQQSIHLGGVFELQPGASVFVNVTDPSQVSHGTGFTSFGLLKLGGGSGGGGDQNPQIAAHVISEASSKTTSVLQWAEKGYYTMSNNLVTLENGKQLTVKRQGLYYIYAQVTFCSNREASSQAPFIASLCLKSPGRFERILLRAANTHSSAKPCGQQSIHLGGVFELQPGASVFVNVTDPSQVSHGTGFTSFGLLKLGGGGSGGGTGGGGSQVSHRYPRIQSIKVQFTEYKKEKGFILTSQKEDEIMKVQNNSVIINCDGFYLISLKGYFSQEVNISLHYQKDEEPLFQLKKVRSVNSLMVASLTYKDKVYLNVTTDNTSLDDFHVNGGELILIHQNPGEFCVLGGGSGGGQVSHRYPRIQSIKVQFTEYKKEKGFILTSQKEDEIMKVQNNSVIINCDGFYLISLKGYFSQEVNISLHYQKDEEPLFQLKKVRSVNSLMVASLTYKDKVYLNVTTDNTSLDDFHVNGGELILIHQNPGEFCVLGGGSGGGQVSHRYPRIQSIKVQFTEYKKEKGFILTSQKEDEIMKVQNNSVIINCDGFYLISLKGYFSQEVNISLHYQKDEEPLFQLKKVRSVNSLMVASLTYKDKVYLNVTTDNTSLDDFHVNGGELILIHQNPGEFCVL
notes: scDuokine from HEK293, FLAG-purified; VH leader left out; also called single-chain Duokine scCD40L-scOX40L; not shown: N-terminal FLAG tag
not listed: CD27-Fc [2] | CD27-Fc [4] | [6] | CD27-Fc [8] | CD27-Fc [10] | [12]
binds: all other assays above

B3: scCD27L-scOX40L (ligand)
chain: SLGWDVAELQLNHTGPQQDPRLYWQGGPALGRSFLHGPELDKGQLRIHRDGIYMVHIQVTLAICSSTTASRHHPTTLAVGICSPASRSISLLRLSFHQGCTIASQRLTPLARGDTLCTNLTGTLLPSRNTDETFFGVQWVRPGGGSGGGSLGWDVAELQLNHTGPQQDPRLYWQGGPALGRSFLHGPELDKGQLRIHRDGIYMVHIQVTLAICSSTTASRHHPTTLAVGICSPASRSISLLRLSFHQGCTIASQRLTPLARGDTLCTNLTGTLLPSRNTDETFFGVQWVRPGGGSGGGSLGWDVAELQLNHTGPQQDPRLYWQGGPALGRSFLHGPELDKGQLRIHRDGIYMVHIQVTLAICSSTTASRHHPTTLAVGICSPASRSISLLRLSFHQGCTIASQRLTPLARGDTLCTNLTGTLLPSRNTDETFFGVQWVRPGGGGSGGGTGGGGSQVSHRYPRIQSIKVQFTEYKKEKGFILTSQKEDEIMKVQNNSVIINCDGFYLISLKGYFSQEVNISLHYQKDEEPLFQLKKVRSVNSLMVASLTYKDKVYLNVTTDNTSLDDFHVNGGELILIHQNPGEFCVLGGGSGGGQVSHRYPRIQSIKVQFTEYKKEKGFILTSQKEDEIMKVQNNSVIINCDGFYLISLKGYFSQEVNISLHYQKDEEPLFQLKKVRSVNSLMVASLTYKDKVYLNVTTDNTSLDDFHVNGGELILIHQNPGEFCVLGGGSGGGQVSHRYPRIQSIKVQFTEYKKEKGFILTSQKEDEIMKVQNNSVIINCDGFYLISLKGYFSQEVNISLHYQKDEEPLFQLKKVRSVNSLMVASLTYKDKVYLNVTTDNTSLDDFHVNGGELILIHQNPGEFCVL
notes: scDuokine from HEK293, FLAG-purified; VH leader left out; also called single-chain Duokine scCD27L-scOX40L; not shown: N-terminal FLAG tag
not listed: CD40-Fc [1] | CD40-Fc [3] | CD40 receptor on cells [5] | CD40-Fc [7] | CD40-Fc [9] | CD40 receptor on cells [11]
binds: all other assays above

Source: patent publication US20190276511A1 (BIONTECH RNA PHARMACEUTICALS, published 2019)
